Here are results for 58 variants from the supplement of paper PMC10382679.

B1: Rpb7; numbered along this chain (parent)
chain: MFFIKDLSLNITLHPSFFGPRMKQYLKTKLLEEVEGSCTGKFGYILCVLDYDNIDIQRGRILPTDGSAEFNVKYRAVVFKPFKGEVVDGTVVSCSQHGFEVQVGPMKVFVTKHLMPQDLTFNAGSNPPSYQSSEDVITIKSRIRVKIEGCISQVSSIHAIGSIKEDYLGAI

Variants of B1 are the subject of data set [1]. The data set can be described thus: log2 fold change of mutant abundance, UV-irradiated vs unirradiated; higher = more UV resistant (enriched after UV). To be noted: with Saccharomyces cerevisiae rad7Δ rad26Δ; UV dose (J/m2): 10; genetic background: rad7Δ rad26Δ rpb7Δ + plasmid RPB7 library; outgrowth: 10 cell divisions.
The variants in data set [2] derive from B1. The data set can be described thus: NOISeq theta enrichment statistic, UV-irradiated vs unirradiated (dimensionless); higher = more UV resistant (enriched after UV). The note with it: with Saccharomyces cerevisiae rad7Δ rad26Δ; UV dose (J/m2): 10; genetic background: rad7Δ rad26Δ rpb7Δ + plasmid RPB7 library; outgrowth: 10 cell divisions.

Single values of this set are uncertain.

Consider T12N, for which the “log2 fold change of mutant abundance” value in data set [1] is 0.00967. Also, the “NOISeq theta enrichment statistic” value in data set [2] was determined as 0.0174.
T12R: in data set [1], the “log2 fold change of mutant abundance” value was -0.164. The “NOISeq theta enrichment statistic” value in data set [2] was -0.109.
Take T12K: the “log2 fold change of mutant abundance” value in data set [1] is 0.185. Further, the “NOISeq theta enrichment statistic” value in data set [2] was 0.13.
For P63S, in data set [1], the “log2 fold change of mutant abundance” value is -0.134. Besides, the “NOISeq theta enrichment statistic” value in data set [2] was -0.484.
The matching figures for N53R: 0.848 and 0.525.
Turning to I157M, the “log2 fold change of mutant abundance” value in data set [1] was -0.0853. Also, the “NOISeq theta enrichment statistic” value in data set [2] is -0.139.
The matching figures for D166K: -0.151 and -0.102.
Take V77M: the “log2 fold change of mutant abundance” value in data set [1] is 0.655. In data set [2], the “NOISeq theta enrichment statistic” value was 0.404.
The matching figures for F82D: 0.34 and 0.193.
Regarding F82L, the “log2 fold change of mutant abundance” value in data set [1] was 0.0559. In addition, the “NOISeq theta enrichment statistic” value in data set [2] worked out at 0.558.
The matching figures for F82P: -1.13 and -0.738.
In the case of I163N, the “log2 fold change of mutant abundance” value in data set [1] was -0.16. In data set [2], the “NOISeq theta enrichment statistic” value was -0.323.
Regarding A76H, the “log2 fold change of mutant abundance” value in data set [1] was 0.132. Further, the “NOISeq theta enrichment statistic” value in data set [2] was 0.087.
For the variant Q153K, in data set [1], the “log2 fold change of mutant abundance” value was -0.256. Moreover, the “NOISeq theta enrichment statistic” value in data set [2] is -0.497.
For the variant Q102R, in data set [1], the “log2 fold change of mutant abundance” value was -0.0742. Besides, in data set [2], the “NOISeq theta enrichment statistic” value was -0.405.
Q102I: the “log2 fold change of mutant abundance” value in data set [1] is -0.0032. In data set [2], the “NOISeq theta enrichment statistic” value was -0.00316.
As for K23I, the “log2 fold change of mutant abundance” value in data set [1] is -0.3. For the same variant, the “NOISeq theta enrichment statistic” value in data set [2] is -0.225.
Consider K23V, for which the “log2 fold change of mutant abundance” value in data set [1] worked out at 0.15. Moreover, the “NOISeq theta enrichment statistic” value in data set [2] came to 0.0893.
The corresponding values for K23T are 0.00255 and 0.00435.
Regarding S67P, the “log2 fold change of mutant abundance” value in data set [1] is -0.0289. Further, the “NOISeq theta enrichment statistic” value in data set [2] was -0.082.
As to F121D, the “log2 fold change of mutant abundance” value in data set [1] was found to be 0.0747. In addition, the “NOISeq theta enrichment statistic” value in data set [2] stood at 0.068.
For the variant F121I, the “log2 fold change of mutant abundance” value in data set [1] is -0.0902. For the same variant, in data set [2], the “NOISeq theta enrichment statistic” value is -0.343.
For the variant G19C, the “log2 fold change of mutant abundance” value in data set [1] is 0.153. Besides, in data set [2], the “NOISeq theta enrichment statistic” value came out at 0.487.
Turning to G19V, the “log2 fold change of mutant abundance” value in data set [1] amounted to 0.0075. Further, the “NOISeq theta enrichment statistic” value in data set [2] was 0.0156.
Regarding G19A, in data set [1], the “log2 fold change of mutant abundance” value is -0.158. Also, the “NOISeq theta enrichment statistic” value in data set [2] is -0.189.
The matching figures for Q96W: 0.0286 and 0.0332.
On to Q96I, for which, in data set [1], the “log2 fold change of mutant abundance” value came to 0.134. For the same variant, the “NOISeq theta enrichment statistic” value in data set [2] came out at 0.123.
Regarding Q96C, the “log2 fold change of mutant abundance” value in data set [1] stood at 0.042. The “NOISeq theta enrichment statistic” value in data set [2] was determined as 0.0378.
Turning to Q96M, the “log2 fold change of mutant abundance” value in data set [1] is 0.00307. Also, the “NOISeq theta enrichment statistic” value in data set [2] came out at 0.00513.
With S155W, the “log2 fold change of mutant abundance” value in data set [1] is -0.499. Moreover, the “NOISeq theta enrichment statistic” value in data set [2] was -0.211.
S155V: in data set [1], the “log2 fold change of mutant abundance” value was -0.702. Also, the “NOISeq theta enrichment statistic” value in data set [2] was -0.478.
In the case of S155E, the “log2 fold change of mutant abundance” value in data set [1] is 0.244. The “NOISeq theta enrichment statistic” value in data set [2] turned out to be 0.145.
Turning to P128L, the “log2 fold change of mutant abundance” value in data set [1] was -0.017. For the same variant, the “NOISeq theta enrichment statistic” value in data set [2] was -0.047.
The corresponding values for K5G are 1.09 and 0.384.
With T138A, the “log2 fold change of mutant abundance” value in data set [1] worked out at 0.0321. In data set [2], the “NOISeq theta enrichment statistic” value turned out to be 0.106.
As to T138K, the “log2 fold change of mutant abundance” value in data set [1] is -0.358. Besides, the “NOISeq theta enrichment statistic” value in data set [2] was -0.32.
The matching figures for Y167N: -0.308 and -0.464.
C47R: the “log2 fold change of mutant abundance” value in data set [1] is -0.118. In addition, in data set [2], the “NOISeq theta enrichment statistic” value is -0.333.
Turning to C47S, in data set [1], the “log2 fold change of mutant abundance” value was 0.114. In addition, in data set [2], the “NOISeq theta enrichment statistic” value is 0.458.
Take A170G: the “log2 fold change of mutant abundance” value in data set [1] stood at 0.128. In data set [2], the “NOISeq theta enrichment statistic” value worked out at 0.199.
Regarding P81E, in data set [1], the “log2 fold change of mutant abundance” value is -0.417. For the same variant, the “NOISeq theta enrichment statistic” value in data set [2] is -0.253.
For the variant P81T, in data set [1], the “log2 fold change of mutant abundance” value was -0.0279. Besides, the “NOISeq theta enrichment statistic” value in data set [2] was -0.176.
The matching figures for P81S: -0.0649 and -0.201.
For P81L, in data set [1], the “log2 fold change of mutant abundance” value was 0.0837. Moreover, the “NOISeq theta enrichment statistic” value in data set [2] worked out at 0.452.
E35Q: the “log2 fold change of mutant abundance” value in data set [1] worked out at 0.11. Besides, the “NOISeq theta enrichment statistic” value in data set [2] is 0.116.
K83E: the “log2 fold change of mutant abundance” value in data set [1] was 0.628. The “NOISeq theta enrichment statistic” value in data set [2] worked out at 1.36.
For K73S, the “log2 fold change of mutant abundance” value in data set [1] was -0.332. For the same variant, in data set [2], the “NOISeq theta enrichment statistic” value is -0.307.
As to K112T, the “log2 fold change of mutant abundance” value in data set [1] is 0.105. Moreover, the “NOISeq theta enrichment statistic” value in data set [2] came to 0.245.
As for K112S, the “log2 fold change of mutant abundance” value in data set [1] was -0.187. In addition, the “NOISeq theta enrichment statistic” value in data set [2] was -0.143.
The matching figures for K112E: 0.0733 and 0.191.
The matching figures for L168M: -0.0389 and -0.116.
The corresponding values for E85A are -0.0104 and -0.0244.
On to E85K, for which, in data set [1], the “log2 fold change of mutant abundance” value is 0.0231. In addition, the “NOISeq theta enrichment statistic” value in data set [2] was 0.0737.
For the variant R60L, the “log2 fold change of mutant abundance” value in data set [1] was -0.248. Further, the “NOISeq theta enrichment statistic” value in data set [2] is -0.174.
Regarding R60K, in data set [1], the “log2 fold change of mutant abundance” value turned out to be 0.0128. Moreover, in data set [2], the “NOISeq theta enrichment statistic” value was 0.0308.
As for R60M, the “log2 fold change of mutant abundance” value in data set [1] was -0.298. The “NOISeq theta enrichment statistic” value in data set [2] was -0.2.
The corresponding values for I171L are 0.013 and 0.0113.
The matching figures for V86L: -0.0653 and -0.272.
